PubChem BioAssay AID1159584, Peter MacCallum Cancer Centre | 2016
Test: 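Knock-downs that harm CDH1-null cells more than parental MCF10A cells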 (primary screen). Cell system: human MCF10A breast epithelial cells, parental and CDH1-null. Knock-down reagent: siRNA against human genes. Measurement: 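ATP luminescence (CellTiter-Glo) viability per line relative to mean mock wells over all plates, and the ratio of CDH1-null to parental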. Reading the numbers: CDH1-null / parental viability ratio: higher = CDH1-null cells survive relatively better than parental.
This is a random part of about 18,000 deposited reagents. Reagents against one gene are numbered here. Further read-outs or replicates are left out here. Not stated in the record: the amount of reagent, the time to read-out.

APOO (apolipoprotein O) gave CDH1-null / parental viability ratio 1.08.
SRRM4 (serine/arginine repetitive matrix 4) gave CDH1-null / parental viability ratio 0.87.
XAGE2 (X antigen family member 2) showed CDH1-null / parental viability ratio 1.02.
For WDR54 (WD repeat domain 54), the entry reads CDH1-null / parental viability ratio 0.73.
Knock-down of PKN3 (protein kinase N3) came out at: CDH1-null / parental viability ratio 0.87.
After knock-down of NLRP7 (NLR family pyrin domain containing 7), the screen gave CDH1-null / parental viability ratio 1.17.
GRXCR1 (glutaredoxin and cysteine rich domain containing 1) scored CDH1-null / parental viability ratio 0.94.
RNF146 (ring finger protein 146) gave CDH1-null / parental viability ratio 0.85.
Silencing of SYCP3 (synaptonemal complex protein 3) came out at: CDH1-null / parental viability ratio 0.98.
For CALML5 (calmodulin like 5), the entry reads CDH1-null / parental viability ratio 1.27.
For HDGFL3 (HDGF like 3), the entry reads CDH1-null / parental viability ratio 0.89.
Silencing of DEFB110 (defensin beta 110) #1 gave: CDH1-null / parental viability ratio 1.23.
Silencing of DEFB110 (defensin beta 110) #2 resulted in: CDH1-null / parental viability ratio 1.06.
With knock-down of XKR8 (XK related 8), the screen gave CDH1-null / parental viability ratio 1.11.
NRN1L (neuritin 1 like) showed CDH1-null / parental viability ratio 0.7.
Depletion of SLC25A29 came out at: CDH1-null / parental viability ratio 0.89.
With knock-down of C10orf55 (chromosome 10 putative open reading frame 55), the screen gave CDH1-null / parental viability ratio 1.03.
With knock-down of PHETA1 (PH domain containing endocytic trafficking adaptor 1), the screen gave CDH1-null / parental viability ratio 0.82.
KLF16 (KLF transcription factor 16) scored CDH1-null / parental viability ratio 0.94.
With knock-down of SDCBP (syndecan binding protein) the results were CDH1-null / parental viability ratio 1.08.
After knock-down of ZKSCAN3 (zinc finger with KRAB and SCAN domains 3), the screen gave CDH1-null / parental viability ratio 1.03.
With knock-down of BMI1 (BMI1 proto-oncogene, polycomb ring finger), the screen gave CDH1-null / parental viability ratio 1.
Knock-down of SLC16A7 came out at: CDH1-null / parental viability ratio 1.02.
Depletion of MAN2C1 (mannosidase alpha class 2C member 1) resulted in: CDH1-null / parental viability ratio 0.94.
